Paper PMC8201768
No constants are given. Whether binding was seen depends on the method and setting.

Target: Sgo_R3-4 (tandem SHIRT repeats 3 and 4 of Sgo_0707, residues 621 through 789) (S. gordonii strain Challis (substrain DL1)) (UniProt A8AW49)
Test: SEC; SEC inline with SAXS (Shodex KW-203.5 column), 20 mM Tris-HCl, 150 mM NaCl, 3 mM KNO3, 5 mM β-mercaptoethanol, pH 7.5; each protein injected at 7.5 mg/mL; both purified

## Sgo_R3-4 (tandem SHIRT repeats 3 and 4 of Sgo_0707, residues 621 through 789) (from UniProt A8AW49 621-789) (domain or fragment)
  binding: no binding (tested: 7.5 mg/mL)
